Amino acid sequences for entries named in this document (tags omitted). A change or cut given only in a name is not applied to a line headed by its entry.
UniProt Q9UQB8: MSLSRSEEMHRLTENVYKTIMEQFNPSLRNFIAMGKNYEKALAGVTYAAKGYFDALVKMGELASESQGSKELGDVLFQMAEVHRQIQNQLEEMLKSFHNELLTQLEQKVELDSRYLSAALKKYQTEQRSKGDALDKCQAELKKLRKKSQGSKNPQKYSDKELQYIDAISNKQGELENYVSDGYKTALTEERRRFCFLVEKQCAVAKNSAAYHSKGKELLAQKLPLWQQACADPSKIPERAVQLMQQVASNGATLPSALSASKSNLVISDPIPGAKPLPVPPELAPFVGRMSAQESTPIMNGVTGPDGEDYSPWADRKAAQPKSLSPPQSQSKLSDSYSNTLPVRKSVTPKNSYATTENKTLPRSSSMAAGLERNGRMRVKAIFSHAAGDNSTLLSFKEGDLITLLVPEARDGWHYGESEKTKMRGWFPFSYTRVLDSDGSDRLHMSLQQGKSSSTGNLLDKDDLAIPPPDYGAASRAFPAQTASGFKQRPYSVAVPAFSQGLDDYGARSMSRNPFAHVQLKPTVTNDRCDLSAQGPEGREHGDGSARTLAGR
UniProt P13020: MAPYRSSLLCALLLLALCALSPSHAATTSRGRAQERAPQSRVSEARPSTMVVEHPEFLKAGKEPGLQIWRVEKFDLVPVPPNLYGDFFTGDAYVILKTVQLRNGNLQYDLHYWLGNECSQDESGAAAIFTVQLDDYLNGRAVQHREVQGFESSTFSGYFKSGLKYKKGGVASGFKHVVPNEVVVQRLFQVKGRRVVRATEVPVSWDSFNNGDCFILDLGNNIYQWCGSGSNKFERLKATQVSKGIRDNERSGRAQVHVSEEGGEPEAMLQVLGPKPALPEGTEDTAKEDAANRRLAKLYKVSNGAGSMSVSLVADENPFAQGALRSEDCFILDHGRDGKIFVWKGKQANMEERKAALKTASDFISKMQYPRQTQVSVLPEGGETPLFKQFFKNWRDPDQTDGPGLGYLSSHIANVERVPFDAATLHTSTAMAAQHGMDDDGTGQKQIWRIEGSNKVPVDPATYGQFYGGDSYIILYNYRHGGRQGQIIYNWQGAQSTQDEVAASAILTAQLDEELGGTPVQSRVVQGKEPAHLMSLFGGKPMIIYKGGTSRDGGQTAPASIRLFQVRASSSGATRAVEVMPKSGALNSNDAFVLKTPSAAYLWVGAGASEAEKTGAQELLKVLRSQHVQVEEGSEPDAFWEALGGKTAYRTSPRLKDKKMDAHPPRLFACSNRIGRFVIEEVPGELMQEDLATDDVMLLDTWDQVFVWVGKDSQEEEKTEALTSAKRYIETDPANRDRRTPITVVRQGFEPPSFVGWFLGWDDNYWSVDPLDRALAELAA
UniProt Q03173: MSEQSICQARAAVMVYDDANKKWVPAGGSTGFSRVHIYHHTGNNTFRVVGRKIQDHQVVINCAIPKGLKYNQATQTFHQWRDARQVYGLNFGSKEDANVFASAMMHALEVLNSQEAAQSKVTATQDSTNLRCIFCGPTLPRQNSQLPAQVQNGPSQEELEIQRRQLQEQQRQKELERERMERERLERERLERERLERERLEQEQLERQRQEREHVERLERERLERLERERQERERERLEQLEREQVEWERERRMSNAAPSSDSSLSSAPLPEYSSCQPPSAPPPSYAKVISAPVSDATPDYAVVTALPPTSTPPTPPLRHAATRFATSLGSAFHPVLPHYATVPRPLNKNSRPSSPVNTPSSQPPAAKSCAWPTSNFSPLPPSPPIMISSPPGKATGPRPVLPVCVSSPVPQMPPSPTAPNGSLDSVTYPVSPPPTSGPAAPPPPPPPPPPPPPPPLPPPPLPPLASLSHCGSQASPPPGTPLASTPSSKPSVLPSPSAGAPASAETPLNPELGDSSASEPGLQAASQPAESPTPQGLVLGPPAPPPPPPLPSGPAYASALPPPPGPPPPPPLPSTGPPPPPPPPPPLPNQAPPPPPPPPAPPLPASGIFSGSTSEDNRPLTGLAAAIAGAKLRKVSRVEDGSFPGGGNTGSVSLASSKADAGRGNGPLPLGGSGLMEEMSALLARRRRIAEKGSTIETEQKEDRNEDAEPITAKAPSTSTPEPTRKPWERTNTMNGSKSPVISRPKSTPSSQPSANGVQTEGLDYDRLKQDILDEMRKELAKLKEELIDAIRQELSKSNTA
UniProt A0A571BF02: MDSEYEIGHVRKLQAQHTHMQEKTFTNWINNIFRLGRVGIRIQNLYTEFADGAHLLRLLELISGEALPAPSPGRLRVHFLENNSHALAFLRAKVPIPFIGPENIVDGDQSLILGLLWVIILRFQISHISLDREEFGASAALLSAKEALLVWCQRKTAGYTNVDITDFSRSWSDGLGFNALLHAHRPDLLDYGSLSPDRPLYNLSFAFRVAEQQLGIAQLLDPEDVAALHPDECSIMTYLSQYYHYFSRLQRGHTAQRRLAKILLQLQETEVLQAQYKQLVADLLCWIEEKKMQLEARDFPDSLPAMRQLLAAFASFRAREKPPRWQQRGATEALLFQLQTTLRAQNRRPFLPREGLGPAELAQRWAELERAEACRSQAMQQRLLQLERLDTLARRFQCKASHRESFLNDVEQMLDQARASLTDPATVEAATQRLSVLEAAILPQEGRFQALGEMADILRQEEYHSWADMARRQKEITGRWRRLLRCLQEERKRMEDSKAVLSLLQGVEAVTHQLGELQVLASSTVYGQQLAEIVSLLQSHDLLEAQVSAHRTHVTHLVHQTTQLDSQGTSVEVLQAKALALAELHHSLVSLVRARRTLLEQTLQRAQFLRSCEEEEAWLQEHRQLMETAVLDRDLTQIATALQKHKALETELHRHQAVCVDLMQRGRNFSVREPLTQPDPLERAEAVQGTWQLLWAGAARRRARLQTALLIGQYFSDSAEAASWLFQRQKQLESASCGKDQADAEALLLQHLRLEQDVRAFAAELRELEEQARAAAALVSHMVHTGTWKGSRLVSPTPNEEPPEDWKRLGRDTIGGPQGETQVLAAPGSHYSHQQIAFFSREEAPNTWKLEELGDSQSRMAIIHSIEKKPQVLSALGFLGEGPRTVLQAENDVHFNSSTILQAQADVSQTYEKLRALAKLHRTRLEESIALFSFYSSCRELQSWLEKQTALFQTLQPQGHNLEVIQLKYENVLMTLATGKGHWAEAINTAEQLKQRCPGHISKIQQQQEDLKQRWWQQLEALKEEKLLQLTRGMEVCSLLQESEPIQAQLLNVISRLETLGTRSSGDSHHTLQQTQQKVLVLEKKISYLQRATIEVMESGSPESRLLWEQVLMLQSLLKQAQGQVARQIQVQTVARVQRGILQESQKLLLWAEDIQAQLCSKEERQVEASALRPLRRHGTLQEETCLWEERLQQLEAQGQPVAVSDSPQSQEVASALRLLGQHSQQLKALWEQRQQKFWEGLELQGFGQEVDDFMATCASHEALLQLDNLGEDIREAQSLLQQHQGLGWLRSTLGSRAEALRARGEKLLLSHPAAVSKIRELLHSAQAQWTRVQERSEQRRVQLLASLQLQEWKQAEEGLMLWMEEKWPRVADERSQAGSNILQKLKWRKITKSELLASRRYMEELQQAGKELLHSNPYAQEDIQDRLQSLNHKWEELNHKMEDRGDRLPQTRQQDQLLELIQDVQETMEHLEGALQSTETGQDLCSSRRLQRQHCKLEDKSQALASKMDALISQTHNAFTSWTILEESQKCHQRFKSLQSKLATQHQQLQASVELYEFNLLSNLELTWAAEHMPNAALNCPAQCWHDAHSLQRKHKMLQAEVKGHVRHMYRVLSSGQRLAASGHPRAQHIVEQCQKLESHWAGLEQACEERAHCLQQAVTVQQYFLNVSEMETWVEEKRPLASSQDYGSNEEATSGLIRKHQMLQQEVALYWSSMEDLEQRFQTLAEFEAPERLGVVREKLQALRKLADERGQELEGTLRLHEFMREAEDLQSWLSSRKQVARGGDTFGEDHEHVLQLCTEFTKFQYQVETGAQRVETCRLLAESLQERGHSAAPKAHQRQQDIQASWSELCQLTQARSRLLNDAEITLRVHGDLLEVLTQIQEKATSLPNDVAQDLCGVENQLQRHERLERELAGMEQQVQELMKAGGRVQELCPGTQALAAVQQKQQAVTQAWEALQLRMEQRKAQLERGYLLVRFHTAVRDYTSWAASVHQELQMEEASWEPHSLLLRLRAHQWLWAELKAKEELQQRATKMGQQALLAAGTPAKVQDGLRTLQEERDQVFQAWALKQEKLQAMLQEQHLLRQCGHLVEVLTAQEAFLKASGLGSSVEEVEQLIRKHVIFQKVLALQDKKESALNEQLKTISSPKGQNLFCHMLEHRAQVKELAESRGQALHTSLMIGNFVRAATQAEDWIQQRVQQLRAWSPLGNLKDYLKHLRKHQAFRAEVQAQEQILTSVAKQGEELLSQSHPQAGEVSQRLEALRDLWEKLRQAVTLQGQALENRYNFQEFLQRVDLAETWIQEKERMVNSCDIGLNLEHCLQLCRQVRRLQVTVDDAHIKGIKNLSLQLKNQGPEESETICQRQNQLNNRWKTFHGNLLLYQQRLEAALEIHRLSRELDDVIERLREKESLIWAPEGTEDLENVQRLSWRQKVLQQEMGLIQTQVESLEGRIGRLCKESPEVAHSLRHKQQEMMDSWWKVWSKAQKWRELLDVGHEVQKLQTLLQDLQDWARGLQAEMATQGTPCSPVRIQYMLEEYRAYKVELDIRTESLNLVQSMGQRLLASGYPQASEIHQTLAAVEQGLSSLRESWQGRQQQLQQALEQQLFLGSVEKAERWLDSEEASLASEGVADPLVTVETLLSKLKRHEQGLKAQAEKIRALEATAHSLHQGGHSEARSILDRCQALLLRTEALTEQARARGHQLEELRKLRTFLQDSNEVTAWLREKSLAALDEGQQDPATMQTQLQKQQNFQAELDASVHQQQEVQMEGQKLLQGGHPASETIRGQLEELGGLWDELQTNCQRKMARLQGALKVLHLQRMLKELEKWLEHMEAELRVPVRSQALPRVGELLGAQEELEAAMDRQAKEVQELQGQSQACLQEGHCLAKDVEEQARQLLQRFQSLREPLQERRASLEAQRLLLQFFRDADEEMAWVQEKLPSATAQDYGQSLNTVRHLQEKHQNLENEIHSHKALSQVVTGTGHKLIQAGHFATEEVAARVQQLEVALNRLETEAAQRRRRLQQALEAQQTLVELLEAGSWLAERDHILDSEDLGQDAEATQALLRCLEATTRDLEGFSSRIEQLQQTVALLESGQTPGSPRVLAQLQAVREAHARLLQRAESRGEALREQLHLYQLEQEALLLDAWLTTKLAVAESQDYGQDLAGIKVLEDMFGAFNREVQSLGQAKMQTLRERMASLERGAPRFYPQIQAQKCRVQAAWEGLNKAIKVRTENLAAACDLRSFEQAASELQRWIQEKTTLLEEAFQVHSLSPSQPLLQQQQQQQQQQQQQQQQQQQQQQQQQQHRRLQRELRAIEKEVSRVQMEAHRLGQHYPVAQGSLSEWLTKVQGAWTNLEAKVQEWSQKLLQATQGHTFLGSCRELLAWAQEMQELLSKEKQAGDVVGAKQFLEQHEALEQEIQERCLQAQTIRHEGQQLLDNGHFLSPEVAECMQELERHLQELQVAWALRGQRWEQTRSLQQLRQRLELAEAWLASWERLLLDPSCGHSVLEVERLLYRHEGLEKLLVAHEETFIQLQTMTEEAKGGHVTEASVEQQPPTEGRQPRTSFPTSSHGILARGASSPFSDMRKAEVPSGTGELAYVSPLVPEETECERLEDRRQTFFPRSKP
UniProt P62962: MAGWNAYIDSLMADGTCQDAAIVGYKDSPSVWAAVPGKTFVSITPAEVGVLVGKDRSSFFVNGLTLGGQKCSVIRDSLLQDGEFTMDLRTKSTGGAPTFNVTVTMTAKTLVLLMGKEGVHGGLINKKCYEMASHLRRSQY

In publication doi:10.1101/2022.08.24.504515:

target: IRSp53-EGFP (UniProt Q9UQB8); assay: affinity purification with mass spectrometry

Substance	binding
Myh3 (from UniProt P13541 1-1940)	binds
Arpc1b (from UniProt Q9WV32 1-372)	binds
gelsolin (from UniProt P13020)	binds

The remaining lines, values ahead:

binding	Substance
binds	Enah (from UniProt Q03173 1-802)
binds	Sptbn5 (from UniProt A0A571BF02 1-3624)
binds	profilin (from UniProt P62962 1-140)

These are yes or no findings as the source states them, for the method shown. In cells and extracts the contact can be indirect. Here binding means that the protein was enriched with, or labelled near, the bait; the list need not be complete.
